Laboratory results taken from patent US20150044237A1 (CENTRE NATIONAL DE LA RECHERCHE SCIENTIFIQUE, published 2015).
No constants are given. Whether binding was seen depends on the method and setting. For some assays here: Binding seen in cells or lysates may run through a third protein. Some binding calls cover weakened binding; strength is not graded here.

The chains behind the UniProt entries cited, without tags or fusion partners. Residues count along the entry.
UniProt P25445, residues 26-173: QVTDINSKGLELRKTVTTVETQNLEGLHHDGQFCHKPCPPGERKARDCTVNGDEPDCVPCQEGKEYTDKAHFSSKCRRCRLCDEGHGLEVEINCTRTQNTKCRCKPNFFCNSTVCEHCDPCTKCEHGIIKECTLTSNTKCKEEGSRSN
UniProt P48023, residues 127-281: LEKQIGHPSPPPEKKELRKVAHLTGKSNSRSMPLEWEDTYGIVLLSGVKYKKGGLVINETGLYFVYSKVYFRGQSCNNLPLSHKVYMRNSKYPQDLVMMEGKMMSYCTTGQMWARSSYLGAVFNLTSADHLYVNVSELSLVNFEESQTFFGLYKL

Key:
[1] = molecular target: Recombinant Fas-Fc (R&Dsystems) (UniProt P25445); test: SPR (BIAcore 3000), Fas-Fc immobilised on the chip, analyte at 44 nM (highest concentration tested) [2) C]
[2] = molecular target: polymeric Flag-tagged soluble FasL (pfFasL) (human); test: co-immunoprecipitation with anti-Flag antibody, anti-FasL immunoblot
CD80-pFasL (human) [3] = test: co-immunoprecipitation of sFasL with CD80-pFasL by anti-CD80 after co-transfection, anti-FasL immunoblot
CD80-pFasL (human) [4] = test: co-immunoprecipitation with anti-CD80 antibody, anti-FasL immunoblot
[5] = molecular target: polymeric Flag-tagged soluble FasL (pfFasL) (human); test: co-immunoprecipitation of untagged sFasL with Flag-tagged pfFasL by anti-Flag, anti-FasL immunoblot and densitometry

| binding [1] | binding [2] | binding (CD80-pFasL (human) [3]) | binding (CD80-pFasL (human) [4]) | binding [5] | Substance |
| --- | --- | --- | --- | --- | --- |
| binds |  |  |  |  | cleaved FasL (cFasL) (from UniProt P48023 127-281) (ligand) |
|  | binds | binds | binds | binds | soluble FasL (sFasL) (from UniProt P48023 108-281) (ligand) |
